Source: PubChem BioAssay (NCI)
The hits were mostly taken out for another list; the other results follow. Calls of active or inactive are those of the source. Rule as the data show it: active = growth inhibition above about 70%; inactive = the rest.

How the values were obtained:
[1] = NCI Yeast Anticancer Drug Screen. Data for the wt1 strain (AID 149);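 also: 0% = growth of vehicle-treated wt1 cultures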; conditions: S. cerevisiae wt1 strain (SPY 50644) growth inhibition, active compounds read high
Summary of the method: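 Using yeast strain wt1, compound-induced growth inhibition was determined against vehicle-treated cultures.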

[2] = NCI Yeast Anticancer Drug Screen. Data for the rad50EPP+ strain (AID 151);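 also: 0% = growth of vehicle-treated control cultures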; conditions: S. cerevisiae rad50 mutant strain, active compounds read high
Summary of the method: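 Read-out is yeast growth inhibition relative to vehicle; cells used were the rad50EPP+ strain.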

[3] = NCI Yeast Anticancer Drug Screen. Data for the rad14 strain (AID 159);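 also: 0% = growth of vehicle-treated control cultures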; conditions: S. cerevisiae rad14 strain growth inhibition, active compounds read high
Summary of the method: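 Screen for anticancer potential: a yeast strain altered in DNA damage repair is grown with compound, and reduced growth is quantified against vehicle controls.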

[4] = NCI Yeast Anticancer Drug Screen. Data for the wt2 strain (AID 169);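 also: 0% = growth of vehicle-treated yeast cultures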; conditions: S. cerevisiae wt2 strain growth inhibition, active compounds read high
Summary of the method: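 Treated yeast vs. vehicle-treated yeast: growth inhibition determined.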

[5] = NCI Yeast Anticancer Drug Screen. Data for the sgs1 strain (AID 173);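 also: 0% = growth of vehicle-only control cultures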; conditions: S. cerevisiae sgs1 mutant, active compounds read high
Summary of the method: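 A genetically defined yeast mutant is incubated with the test compound, and its growth is compared to that of the same strain given vehicle.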

[6] = NCI Yeast Anticancer Drug Screen. Data for the rad18 strain (AID 177); conditions: S. cerevisiae rad18 mutant growth inhibition, active compounds read high
Summary of the method: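 Measured value is growth inhibition of a yeast strain bearing a DNA repair alteration, referenced to vehicle-treated cells.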

[7] = NCI Yeast Anticancer Drug Screen. Data for the rad52 strain (AID 147);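 also: 0% = growth of vehicle-treated control cultures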; conditions: S. cerevisiae rad52 mutant growth inhibition, active compounds read high
Summary of the method: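 Here a repair-compromised yeast strain receives each compound; its growth is then quantified and normalised to vehicle-only controls.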

[8] = NCI Yeast Anticancer Drug Screen. Data for the mgt1 strain (AID 153); conditions: S. cerevisiae mgt1 mutant growth inhibition, active compounds read high
Summary of the method: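 Measured: inhibition of mgt1 yeast growth by compound, normalized to vehicle-treated cultures.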

[9] = NCI Yeast Anticancer Drug Screen. Data for the CLN2oe strain (AID 163);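 also: 0% = growth of vehicle-only control cultures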; conditions: S. cerevisiae CLN2oe strain, active compounds read high
Summary of the method: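 Whole-cell yeast growth assay. A strain engineered for altered cell-cycle control received compound, and inhibition relative to vehicle-treated cultures was recorded.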

[10] = NCI Yeast Anticancer Drug Screen. Data for the mlh1 strain (AID 171);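 also: 0% = growth of vehicle-treated control cultures of the same strain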; conditions: S. cerevisiae mlh1 strain growth inhibition, active compounds read high
Summary of the method: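 A yeast strain with a defined genetic lesion serves as the test organism. Cultures receive compound or vehicle, and growth is measured.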

Measured: growth inhibition

CCOC(=O)NC1CCc2cc(OC)c(OC)c(OC)c2-c2ccc(OC)c(=O)cc21 (stereo not given)
inactive: [1]; at 1.2 µM 1% | [1]; at 3.7 µM -1% | [1]; at 11.0 µM 0% | [1]; at 33.0 µM -2% | [1]; at 100.0 µM 23% | [2]; at 1.2 µM -1% | [2]; at 3.7 µM -12% | [2]; at 11.0 µM 0% | [2]; at 33.0 µM -5% | [2]; at 100.0 µM 0% | [3]; at 1.2 µM -1% | [3]; at 3.7 µM -3% | [3]; at 11.0 µM -2% | [3]; at 33.0 µM -5% | [3]; at 100.0 µM -5% | [4]; at 1.2 µM -1% | [4]; at 3.7 µM -1% | [4]; at 11.0 µM -1% | [4]; at 33.0 µM -1% | [4]; at 100.0 µM -1% | [5]; at 1.2 µM 1% | [5]; at 3.7 µM 0% | [5]; at 11.0 µM 2% | [5]; at 33.0 µM 0% | [5]; at 100.0 µM 0% | [6]; at 1.2 µM 1% | [6]; at 3.7 µM -1% | [6]; at 11.0 µM -1% | [6]; at 33.0 µM 0% | [6]; at 100.0 µM 5%

CC(C)(C(=O)O)n1c(-c2ccccc2)c(-c2ccccc2)oc1=O
inactive: [7]; at 1.2 µM -2% | [7]; at 3.7 µM -2% | [7]; at 11.0 µM 0% | [7]; at 33.0 µM -3% | [7]; at 100.0 µM 0% | [1]; at 1.2 µM 0% | [1]; at 3.7 µM 5% | [1]; at 11.0 µM 1% | [1]; at 33.0 µM 1% | [1]; at 100.0 µM 5% | [2]; at 1.2 µM 2% | [2]; at 3.7 µM 4% | [2]; at 11.0 µM 4% | [2]; at 33.0 µM 1% | [2]; at 100.0 µM 2% | [8]; at 1.2 µM -4% | [8]; at 3.7 µM -3% | [8]; at 11.0 µM -2% | [8]; at 33.0 µM -2% | [8]; at 100.0 µM 0% | [3]; at 1.2 µM -3% | [3]; at 3.7 µM -1% | [3]; at 11.0 µM 1% | [3]; at 33.0 µM 1% | [3]; at 100.0 µM 4% | [9]; at 1.2 µM -6% | [9]; at 3.7 µM -10% | [9]; at 11.0 µM -8% | [9]; at 33.0 µM 0% | [9]; at 100.0 µM 4% | [4]; at 1.2 µM -1% | [4]; at 3.7 µM -1% | [4]; at 11.0 µM -2% | [4]; at 33.0 µM 0% | [4]; at 100.0 µM 2% | [10]; at 1.2 µM -1% | [10]; at 3.7 µM 1% | [10]; at 11.0 µM 0% | [10]; at 33.0 µM 2% | [10]; at 100.0 µM 3% | [5]; at 1.2 µM 0% | [5]; at 3.7 µM -1% | [5]; at 11.0 µM 0% | [5]; at 33.0 µM 1% | [5]; at 100.0 µM 4% | [6]; at 1.2 µM 2% | [6]; at 3.7 µM 2% | [6]; at 11.0 µM 5% | [6]; at 33.0 µM 15% | [6]; at 100.0 µM 30%

CCCCN1C(=O)C(=O)C(C(=O)OCC)C1C(=O)OCC (stereo not given)
inactive: [7]; at 1.2 µM -3% | [7]; at 3.7 µM -1% | [7]; at 11.0 µM 3% | [7]; at 33.0 µM 0% | [7]; at 100.0 µM 5% | [1]; at 1.2 µM -1% | [1]; at 3.7 µM -3% | [1]; at 11.0 µM 0% | [1]; at 33.0 µM 0% | [1]; at 100.0 µM 5% | [2]; at 1.2 µM -5% | [2]; at 3.7 µM -4% | [2]; at 11.0 µM 4% | [2]; at 33.0 µM -4% | [2]; at 100.0 µM -1% | [8]; at 1.2 µM -2% | [8]; at 3.7 µM 0% | [8]; at 11.0 µM 2% | [8]; at 33.0 µM 5% | [8]; at 100.0 µM 8% | [3]; at 1.2 µM -2% | [3]; at 3.7 µM 3% | [3]; at 11.0 µM 9% | [3]; at 33.0 µM 9% | [3]; at 100.0 µM 20% | [9]; at 1.2 µM 2% | [9]; at 3.7 µM 4% | [9]; at 11.0 µM 8% | [9]; at 33.0 µM 15% | [9]; at 100.0 µM 22% | [4]; at 1.2 µM -5% | [4]; at 3.7 µM -7% | [4]; at 11.0 µM 3% | [4]; at 33.0 µM 2% | [4]; at 100.0 µM -3% | [10]; at 1.2 µM -3% | [10]; at 3.7 µM 0% | [10]; at 11.0 µM 3% | [10]; at 33.0 µM 5% | [10]; at 100.0 µM 11% | [5]; at 1.2 µM -19% | [5]; at 3.7 µM -17% | [5]; at 11.0 µM -18% | [5]; at 33.0 µM -6% | [5]; at 100.0 µM 14% | [6]; at 1.2 µM -7% | [6]; at 3.7 µM -1% | [6]; at 11.0 µM -2% | [6]; at 33.0 µM -1% | [6]; at 100.0 µM 11%

COc1cccc(/C=C2/S/C(=N/Nc3nc(C)c(C(C)=O)s3)NC2=O)c1O
inactive: [7]; at 1.2 µM 0% | [7]; at 3.7 µM 3% | [7]; at 11.0 µM 7% | [7]; at 33.0 µM 10% | [7]; at 100.0 µM 32% | [2]; at 1.2 µM -3% | [2]; at 3.7 µM -3% | [2]; at 11.0 µM 12% | [2]; at 33.0 µM 33% | [2]; at 100.0 µM 51% | [8]; at 1.2 µM -1% | [8]; at 3.7 µM -2% | [8]; at 11.0 µM 2% | [8]; at 33.0 µM 1% | [8]; at 100.0 µM 56% | [3]; at 1.2 µM 1% | [3]; at 3.7 µM -1% | [3]; at 11.0 µM 8% | [3]; at 33.0 µM 17% | [3]; at 100.0 µM 42% | [9]; at 1.2 µM -5% | [9]; at 3.7 µM -7% | [9]; at 11.0 µM -5% | [9]; at 33.0 µM 10% | [9]; at 100.0 µM 20% | [4]; at 1.2 µM -1% | [4]; at 3.7 µM 0% | [4]; at 11.0 µM 5% | [4]; at 33.0 µM 17% | [4]; at 100.0 µM 45% | [10]; at 1.2 µM -1% | [10]; at 3.7 µM 1% | [10]; at 11.0 µM 6% | [10]; at 33.0 µM 30% | [10]; at 100.0 µM 52% | [5]; at 1.2 µM 2% | [5]; at 3.7 µM 6% | [5]; at 11.0 µM 17% | [5]; at 33.0 µM 47% | [5]; at 100.0 µM 63% | [6]; at 1.2 µM -2% | [6]; at 3.7 µM 0% | [6]; at 11.0 µM 5% | [6]; at 33.0 µM 15% | [6]; at 100.0 µM 38%
